## Percent effect of library compounds

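Whole-cell growth test on Mycobacterium tuberculosis, read after 4 days in a medium based on cholesterol and the lipid DPPC; the read-out is not stated. Compounds at 500 µM. The record gives no direction; compounds that gave an IC50 in retests scored well above the rest, so higher reads as more growth inhibition. Size under these conditions: about 18,000 compounds, about 900 of them at 50% or above in at least one test.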

Values are the deposited “Percent Effect”, in %.
The record does not define 0% and 100%; most values in the screen are far below 50% and negative numbers occur (in some assays of this library far below -100).
This is an unselected part of the compounds tested.

| structure | effect |
|---|---|
| `O=C1CCCOc2ccc(F)cc21` | -9.242% |
| `CS(=O)(=O)CC1(CNc2ncc(Br)cn2)CC1` | 7.031% |
| `Cc1ccccc1C(=O)N1CCN(S(C)(=O)=O)[C@@H](C)C1` | 13% |
| `O=C1CN(CC(=O)Nc2cc(Cl)cc(Cl)c2)CCN1` | 11.42% |
| `CCC(CNS(=O)(=O)c1cnn(C)c1)N1CCCC1` (stereo unspecified) | -11.71% |
| `CN(CCCS(=O)(=O)N(C)C)Cc1nc(C2CC2)no1` | 18.63% |
| `CN(C)c1ncccc1C(=O)OCCN1CCOC1=O` | -9.472% |
| `CCCc1ncncc1C(=O)NC(CC)[C@H]1C[C@H](O)C1` (stereo partly specified) | 7.372% |
| `Cc1ccc(C(N)CF)cc1` (stereo unspecified) | 10.52% |
| `CN(Cc1ccco1)CC(O)COCc1cccs1` (stereo unspecified) | 80.32% |
| `COC(=O)CSc1nc2ncc(Br)cc2[nH]1` | 4.614% |
| `CCc1nc(CNC(=O)NC2CCCN(C)C2)cs1` (stereo unspecified) | -5.994% |
| `CC(=O)NCc1nc2ccccc2n1CC(N)=O` | -31.66% |
| `CC(=O)NCCCC(=O)N(C)Cc1nccs1` | 0.09079% |
| `CC(C)N1CCCC(N2CCNCC2)C1=O` (stereo unspecified) | -7.77% |
| `CCOc1ccccc1OCCN` | 24.42% |
| `CC(C)COCC(O)Cn1nnc(-c2ccco2)n1` (stereo unspecified) | 47.45% |
| `CC(C)n1cnnc1CC1CCCNC1` (stereo unspecified) | -18.36% |
| `CC(=O)c1cccc(OCC(=O)Nc2cc(C)on2)c1` | 4.973% |
| `Cc1cc(C)n(CCCC(=O)N[C@@H]2COCC[C@H]2O)n1` | -13.68% |
| `CS(=O)(=O)c1ccccc1CN` | 8.01% |
| `O=C(CN1CCC(O)CC1)N1CCCCCC1` | -6.266% |
| `O=S(=O)(CCN1CCCC1)c1ccc(Cl)cc1` | 46.17% |
| `Cn1cncc1CCNC(=O)CCc1ccoc1` | -10.47% |
| `Cc1c[nH]c(CN2CCN3CCCC3C2)c(C)c1=O` (stereo unspecified) | -0.9398% |
| `Cc1ccn(Cc2ncnn2CC(C)C)c(=O)c1C#N` | -8.415% |
| `CCc1ccc(C(=O)NC2(C(=O)NC)CCCCC2)o1` | 4.472% |
| `CNC(=O)COc1ccccc1OC` | -18.07% |
| `Cc1cc(F)c(Br)cc1NC(=O)C(C)S(C)(=O)=O` (stereo unspecified) | 20.48% |
| `CC(C)n1cccc1C(=O)NCCc1cncn1C` | -12.55% |
| `Cc1ocnc1C(=O)N1CC(=O)Nc2ccc(Br)cc21` | -5.619% |
| `O=C(NCCO)NC1CCOc2ccccc21` (stereo unspecified) | -2.035% |
| `O=C(NCC(O)c1ccc(F)cc1)Nc1cnns1` (stereo unspecified) | 38.66% |
| `CCCSCC(=O)NCc1cc(O)nc(C)n1` | -6.923% |
| `O=C(Nc1ncccn1)c1cccnc1` | -0.667% |
| `Cc1ccc(S(=O)(=O)NCCN)cc1Br` | 3.404% |
| `O=C1CCCCN1c1ccc(S(=O)(=O)NC2CC2)cc1` | -18.49% |
| `COCCN(CCC#N)S(=O)(=O)c1ncn(C)c1Cl` | -1.395% |
| `CCNc1nc(C(=O)N(C)Cc2cnccn2)cs1` | 7.813% |
| `CCc1ccc(C(=O)NC2CNC[C@@H]2OC)o1` (stereo partly specified) | -11.2% |
| `CCN1CCCN(C(=O)c2cnc3ccccn23)CC1` | -6.666% |
| `N#Cc1ccc(C2NC(=O)c3cccnc3N2)cc1` (stereo unspecified) | 3.85% |
| `O=c1c(C(F)(F)F)cccn1Cc1cccnc1` | -15.42% |
| `Cc1nnsc1CN(C)C(=O)c1cccc2c1OCC2` | 20.03% |
| `Cc1ccc(CN(C)C(=O)Cn2cnnn2)o1` | -14.41% |
| `NC(=O)C1CCCCN1Cc1cn2ccccc2n1` (stereo unspecified) | -2.456% |
| `CC[C@H](C)[C@H](N)CN(C)C` | 15.12% |
| `CNC(=O)NC(=O)CN1CCn2ccnc2C1` | -17.49% |
| `Cc1nc(N)sc1C(=O)N1C[C@H](C2CC2)[C@@H](N)C1` | -24.71% |
| `CS(=O)(=O)c1cccc(S(=O)(=O)Nc2ccccc2)c1` | 2.385% |
| `CCC(C)(CC)NC(=O)NC1CC1` | 7.975% |
| `CCSCC(=O)N(C)Cc1nc(C(C)C)no1` | -4.048% |
| `CN(C)c1cccc(NS(=O)(=O)c2cccs2)n1` | -3.235% |
| `Cc1cc(C(=O)N[C@H]2CCCNC2)n(C)n1` | 12.98% |
| `COCC(C)NC(=O)c1ccc(OC)c(F)c1` (stereo unspecified) | 33% |
| `CN(CC(=O)Nc1ccc(Br)cn1)C1CCOC1=O` (stereo unspecified) | 3.01% |
| `Cc1nccn1CC(=O)Nc1ccnn1C` | 6.982% |
| `CCc1nnc2n1CC(N)CC2` (stereo unspecified) | 4.906% |
| `CC(N)c1cccc(N2CCCC2)c1` (stereo unspecified) | 0.01697% |
| `COCCN1CCN(CCc2ccccn2)CC1` | 2.822% |
| `COCCOc1ccc(C#N)cn1` | 3.295% |
| `CC1CCN(Cc2ccc(C#N)s2)CCS1(=O)=O` (stereo unspecified) | 22.12% |
| `O=C(Nc1ccc(F)cc1)NC1CCNCC1` | 2.886% |
| `Cc1cccc(-n2nnc(C(N)=O)c2N)c1C` | 2.618% |
| `CC(Cn1cccn1)NC(=O)c1cncc(Br)c1` (stereo unspecified) | 4.774% |
| `OCCn1nccc1-c1nc(C2CCOC2)no1` (stereo unspecified) | -2.694% |
| `CCc1nnc(NC(=O)c2ccnc(N(C)C)c2)s1` | 11.1% |
| `Cc1c(CN)cnn1CC(C)C` | -4.643% |
| `N#Cc1ccnc(N2CCCC(O)C2)c1` (stereo unspecified) | 5.644% |
| `CSc1nc(C(=O)N2CCSCC2)c2ccccn12` | 5.485% |
| `CCOc1cccc(CNC(=O)C2CCS(=O)(=O)C2)c1` (stereo unspecified) | -16.61% |
| `O=C(CCn1cncn1)Nc1nc2ccccc2[nH]1` | -19.37% |
| `Cc1nn(CCC(=O)NCCN2CCOCC2)cc1Br` | 17.36% |
| `C[C@@H](O)c1ccc(S(C)(=O)=O)cc1` | -2.696% |
| `O=C1NC[C@H]2NCCC[C@@H]12` | -5.713% |
| `COCCN1CCCN(C(=O)c2cc(Cl)c[nH]2)CC1` | 63.51% |
| `CN(Cc1cnn(C)c1)C(=O)Cn1cc(Br)ccc1=O` | -6.228% |
| `CC(=O)N1CSCC1C(=O)N1CCCCCC1` (stereo unspecified) | 3.7% |
| `CC(=O)c1ccc(S(=O)(=O)NC(CN)C2CC2)cc1` (stereo unspecified) | 16.25% |
| `CCn1ncnc1CN1CCCC(CS(C)(=O)=O)C1` (stereo unspecified) | 3.71% |
| `CN1CCN(C(=O)CCn2cncn2)CC1` | 1.719% |
| `CCN1CCN(C(=O)C(C)Oc2ccc(F)cc2)CC1` (stereo unspecified) | 14.82% |
| `N#CCc1nccc2ccccc12` | 18.44% |

The last 7 entries again:

structure,effect
CN(Cc1cnn(C)c1)C(=O)Cn1cc(Br)ccc1=O,-6.228%
CC(=O)N1CSCC1C(=O)N1CCCCCC1 (stereo unspecified),3.7%
CC(=O)c1ccc(S(=O)(=O)NC(CN)C2CC2)cc1 (stereo unspecified),16.25%
CCn1ncnc1CN1CCCC(CS(C)(=O)=O)C1 (stereo unspecified),3.71%
CN1CCN(C(=O)CCn2cncn2)CC1,1.719%
CCN1CCN(C(=O)C(C)Oc2ccc(F)cc2)CC1 (stereo unspecified),14.82%
N#CCc1nccc2ccccc12,18.44%

Data taken from ChEMBL document CHEMBL3988442, “University of Dundee, Small-Polar-MMV Screening Library” (2021).